Test results published in PMC8559680.
Results are given in words; binding and its absence hold for the method and conditions named. For some of these results: Binding seen in cells or lysates may run through a third protein. Some binding calls cover weakened binding; strength is not graded here. Tags and fused reporters may be left off the sequences shown.

T1: Yth1 (untagged) (yeast) (UniProt Q06102)
T1 sequence: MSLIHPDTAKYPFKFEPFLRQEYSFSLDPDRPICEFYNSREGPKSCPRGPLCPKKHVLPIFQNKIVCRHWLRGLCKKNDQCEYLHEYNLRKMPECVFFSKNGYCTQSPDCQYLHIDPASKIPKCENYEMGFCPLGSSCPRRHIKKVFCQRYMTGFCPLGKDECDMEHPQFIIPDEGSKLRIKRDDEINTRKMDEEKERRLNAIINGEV

T2: Ref2-3C-SII (yeast) (UniProt P42073)
T2 sequence: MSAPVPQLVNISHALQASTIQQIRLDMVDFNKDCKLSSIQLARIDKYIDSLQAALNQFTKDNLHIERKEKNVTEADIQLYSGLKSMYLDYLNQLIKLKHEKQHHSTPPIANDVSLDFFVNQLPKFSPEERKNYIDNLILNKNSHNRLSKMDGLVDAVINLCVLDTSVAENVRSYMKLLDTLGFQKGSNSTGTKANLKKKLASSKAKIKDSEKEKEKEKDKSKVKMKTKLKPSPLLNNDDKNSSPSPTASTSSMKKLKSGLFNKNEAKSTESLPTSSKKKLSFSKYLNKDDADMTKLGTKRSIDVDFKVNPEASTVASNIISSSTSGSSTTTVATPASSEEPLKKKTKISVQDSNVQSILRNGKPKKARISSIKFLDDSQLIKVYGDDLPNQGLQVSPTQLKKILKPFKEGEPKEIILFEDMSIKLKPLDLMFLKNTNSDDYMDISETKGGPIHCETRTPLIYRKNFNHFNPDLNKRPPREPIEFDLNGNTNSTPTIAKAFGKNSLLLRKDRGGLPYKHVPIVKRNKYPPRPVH


These binders were tested against T1, Yth1 (untagged) (yeast) (assay: pull-down; StrepII (SII) tag on Pfs2 as bait; polymerase module subunits co-expressed in Sf9 cells; clarified lysate on Streptactin resin, 4°C; eluate analysed by SDS-PAGE).

Row | binding | Binder
1 | binds | Fip1_(226) (Fip1 residues 1–226), co-expressed in Sf9 (domain or fragment, UniProt P45976 1-226) MSSSEDEDDKFLYGSDSELALPSSKRSRDDEADAGASSNPDIVKRQKFDSPVEETPATARDDRSDEDIYSDSSDDDSDSDLEVIISLGPDPTRLDAKLLDSYSTAATSSSKDVISVATDVSNTITKTSDERLITEGEANQGVTATTVKATESDGNVPKAMTGSIDLDKEGIFDSVGITTIDPEVLKEKPWRQPGANLSDYFNYGFNEFTWMEYLHRQEKLQQDYNP
2 | binds | Fip1_(Δ1–60) (domain or fragment, UniProt P45976 61-327) DDRSDEDIYSDSSDDDSDSDLEVIISLGPDPTRLDAKLLDSYSTAATSSSKDVISVATDVSNTITKTSDERLITEGEANQGVTATTVKATESDGNVPKAMTGSIDLDKEGIFDSVGITTIDPEVLKEKPWRQPGANLSDYFNYGFNEFTWMEYLHRQEKLQQDYNPRRILMGLLSLQQQGKLNSANDTDSNLGNIIDNNNNVNNANMSNLNSNMGNSMSGTPNPPAPPMHPSFPPLPMFGSFPPFPMPGMMPPMNQQPNQNQNQNSK

Each binder was assayed against T2, Ref2-3C-SII (yeast) (assay: co-purification (StrepTactin affinity, anion exchange, size exclusion); StrepII tag on Ref2 as bait; Sf9 cells co-infected with two baculoviruses (nuclease and polymerase modules; phosphatase module); purified complex analysed by SDS-PAGE).

Row | Binder | binding
3 | Cft2 (protein, UniProt Q12102 1-859) MTYKYNCCDDGSGTTVGSVVRFDNVTLLIDPGWNPSKVSYEQCIKYWEKVIPEIDVIILSQPTIECLGAHSLLYYNFTSHFISRIQVYATLPVINLGRVSTIDSYASAGVIGPYDTNKLDLEDIEISFDHIVPLKYSQLVDLRSRYDGLTLLAYNAGVCPGGSIWCISTYSEKLVYAKRWNHTRDNILNAASILDATGKPLSTLMRPSAIITTLDRFGSSQPFKKRSKIFKDTLKKGLSSDGSVIIPVDMSGKFLDLFTQVHELLFESTKINAHTQVPVLILSYARGRTLTYAKSMLEWLSPSLLKTWENRNNTSPFEIGSRIKIIAPNELSKYPGSKICFVSEVGALINEVIIKVGNSEKTTLILTKPSFECASSLDKILEIVEQDERNWKTFPEDGKSFLCDNYISIDTIKEEPLSKEETEAFKVQLKEKKRDRNKKILLVKRESKKLANGNAIIDDTNGERAMRNQDILVENVNGVPPIDHIMGGDEDDDEEEENDNLLNLLKDNSEKSAAKKNTEVPVDIIIQPSAASKHKMFPFNPAKIKKDDYGTVVDFTMFLPDDSDNVNQNSRKRPLKDGAKTTSPVNEEDNKNEEEDGYNMSDPISKRSKHRASRYSGFSGTGEAENFDNLDYLKIDKTLSKRTISTVNVQLKCSVVILNLQSLVDQRSASIIWPSLKSRKIVLSAPKQIQNEEITAKLIKKNIEVVNMPLNKIVEFSTTIKTLDISIDSNLDNLLKWQRISDSYTVATVVGRLVKESLPQVNNHQKTASRSKLVLKPLHGSSRSHKTGALSIGDVRLAQLKKLLTEKNYIAEFKGEGTLVINEKVAVRKINDAETIIDGTPSELFDTVKKLVTDMLAKI | binds
4 | Mpe1 (protein, UniProt P35728 1-441) MSSTIFYRFKSQRNTSRILFDGTGLTVFDLKREIIQENKLGDGTDFQLKIYNPDTEEEYDDDAFVIPRSTSVIVKRSPAIKSFSVHSRLKGNVGAAALGNATRYVTGRPRVLQKRQHTATTTANVSGTTEEERIASMFATQENQWEQTQEEMSAATPVFFKSQTNKNSAQENEGPPPPGYMCYRCGGRDHWIKNCPTNSDPNFEGKRIRRTTGIPKKFLKSIEIDPETMTPEEMAQRKIMITDEGKFVVQVEDKQSWEDYQRKRENRQIDGDETIWRKGHFKDLPDDLKCPLTGGLLRQPVKTSKCCNIDFSKEALENALVESDFVCPNCETRDILLDSLVPDQDKEKEVETFLKKQEELHGSSKDGNQPETKKMKLMDPTGTAGLNNNTSLPTSVNNGGTPVPPVPLPFGIPPFPMFPMPFMPPTATITNPHQADASPKK | binds
5 | Pfs2 (untagged, in CPF) (protein, UniProt P42841 1-465) MDGHNQNQYQNQNQIQQSQQPPLKKYVTQRRSVDVSSPYINLYYNRRHGLPNLVVEPETSYTIDIMPPNAYRGRDRVINLPSKFTHLSSNKVKHVIPAIQWTPEGRRLVVATYSGEFSLWNASSFTFETLMQAHDSAVTTMKYSHDSDWMISGDADGMIKIWQPNFSMVKEIDAAHTESIRDMAFSSNDSKFVTCSDDNILKIWNFSNGKQERVLSGHHWDVKSCDWHPEMGLIASASKDNLVKLWDPRSGNCISSILKFKHTVLKTRFQPTKGNLLMAISKDKSCRVFDIRYSMKELMCVRDETDYMTLEWHPINESMFTLACYDGSLKHFDLLQNLNEPILTIPYAHDKCITSLSYNPVGHIFATAAKDRTIRFWTRARPIDPNAYDDPTYNNKKINGWFFGINNDINAVREKSEFGAAPPPPATLEPHALPNMNGFINKKPRQEIPGIDSNIKSSTLPGLSI | binds
6 | Pta1 (protein, UniProt Q01329 1-785) MSSAEMEQLLQAKTLAMHNNPTEMLPKVLETTASMYHNGNLSKLKLPLAKFFTQLVLDVVSMDSPIANTERPFIAAQYLPLLLAMAQSTADVLVYKNIVLIMCASYPLVLDLVAKTSNQEMFDQLCMLKKFVLSHWRTAYPLRATVDDETDVEQWLAQIDQNIGVKLATIKFISEVVLSQTKSPSGNEINSSTIPDNHPVLNKPALESEAKRLLDMLLNYLIEEQYMVSSVFIGIINSLSFVIKRRPQTTIRILSGLLRFNVDAKFPLEGKSDLNYKLSKRFVERAYKNFVQFGLKNQIITKSLSSGSGSSIYSKLTKISQTLHVIGEETKSKGILNFDPSKGNSKKTLSRQDKLKYISLWKRQLSALLSTLGVSTKTPTPVSAPATGSSTENMLDQLKILQKYTLNKASHQGNTFFNNSPKPISNTYSSVYSLMNSSNSNQDVTQLPNDILIKLSTEAILQMDSTKLITGLSIVASRYTDLMNTYINSVPSSSSSKRKSDDDDDGNDNEEVGNDGPTANSKKIKMETEPLAEEPEEPEDDDRMQKMLQEEESAQEISGDANKSTSAIKEIAPPFEPDSLTQDEKLKYLSKLTKKLFELSGRQDTTRAKSSSSSSILLDDDDSSSWLHVLIRLVTRGIEAQEASDLIREELLGFFIQDFEQRVSLIIEWLNEEWFFQTSLHQDPSNYKKWSLRVLESLGPFLENKHRRFFIRLMSELPSLQSDHLEALKPICLDPARSSLGFQTLKFLIMFRPPVQDTVRDLLHQLKQEDEGLHKQCDSLLDRLK | binds

Continued, values first:

Row | binding | Binder
7 | binds | Pti1 (protein, UniProt P39927 1-425) MTDPRRRTGRHFLTPENLSSTLQITNLPPEWNQDIITSVVAGSGPVIDIKAKNDPRTGKLTGVLFDYLTSKDCKRAWEILNRIENFPVKIEQIIPPNYKDHLRETANKNSQKQVLQLNRDSYPFEAGLELPFEMVTEVPIPRRPPPPQAANNTNSVSNNTNIQFPDILSKASKHLPSFQDGSIIAPDKISQNLSKIPPLQLIEIISNLKILSNQENIQKSQLESFLDTNSDITISVTQALLEMGFIDYSVVTKVLKSQVGEAPSLLSSNNTSNSNTPVSVIRNNTPLHVPSNEVSNNPNNMPLNVAMPMPMSTPPFIPLPLQQQPFGFAPPGPFMPPAQGPSMGQPVLANQLGQVQQQNISSTEGPSNANKANDSGTINMAKLQLLPENQQDMIKQVLTLTPAQIQSLPSDQQLMVENFRKEYII
8 | binds | Ysh1 (enzyme, UniProt Q06224 1-779) MERTNTTTFKFFSLGGSNEVGRSCHILQYKGKTVMLDAGIHPAYQGLASLPFYDEFDLSKVDILLISHFHLDHAASLPYVMQRTNFQGRVFMTHPTKAIYRWLLRDFVRVTSIGSSSSSMGTKDEGLFSDEDLVDSFDKIETVDYHSTVDVNGIKFTAFHAGHVLGAAMFQIEIAGLRVLFTGDYSREVDRHLNSAEVPPLSSNVLIVESTFGTATHEPRLNRERKLTQLIHSTVMRGGRVLLPVFALGRAQEIMLILDEYWSQHADELGGGQVPIFYASNLAKKCMSVFQTYVNMMNDDIRKKFRDSQTNPFIFKNISYLRNLEDFQDFGPSVMLASPGMLQSGLSRDLLERWCPEDKNLVLITGYSIEGTMAKFIMLEPDTIPSINNPEITIPRRCQVEEISFAAHVDFQENLEFIEKISAPNIILVHGEANPMGRLKSALLSNFASLKGTDNEVHVFNPRNCVEVDLEFQGVKVAKAVGNIVNEIYKEENVEIKEEIAAKIEPIKEENEDNLDSQAEKGLVDEEEHKDIVVSGILVSDDKNFELDFLSLSDLREHHPDLSTTILRERQSVRVNCKKELIYWHILQMFGEAEVLQDDDRVTNQEPKVKEESKDNLTNTGKLILQIMGDIKLTIVNTLAVVEWTQDLMNDTVADSIIAILMNVDSAPASVKLSSHSCDDHDHNNVQSNAQGKIDEVERVKQISRLFKEQFGDCFTLFLNKDEYASNKEETITGVVTIGKSTAKIDFNNMKILECNSNPLKGRVESLLNIGGNLVTPLC
9 | binds | Yth1 (untagged) (protein, UniProt Q06102 1-208) MSLIHPDTAKYPFKFEPFLRQEYSFSLDPDRPICEFYNSREGPKSCPRGPLCPKKHVLPIFQNKIVCRHWLRGLCKKNDQCEYLHEYNLRKMPECVFFSKNGYCTQSPDCQYLHIDPASKIPKCENYEMGFCPLGSSCPRRHIKKVFCQRYMTGFCPLGKDECDMEHPQFIIPDEGSKLRIKRDDEINTRKMDEEKERRLNAIINGEV
10 | binds | Swd2 (protein, UniProt P36104 1-329) MTTVSINKPNLLKFKHVKSFQPQEKDCGPVTSLNFDDNGQFLLTSSSNDTMQLYSATNCKFLDTIASKKYGCHSAIFTHAQNECIYSSTMKNFDIKYLNLETNQYLRYFSGHGALVNDLKMNPVNDTFLSSSYDESVRLWDLKISKPQVIIPSLVPNCIAYDPSGLVFALGNPENFEIGLYNLKKIQEGPFLIIKINDATFSQWNKLEFSNNGKYLLVGSSIGKHLIFDAFTGQQLFELIGTRAFPMREFLDSGSACFTPDGEFVLGTDYDGRIAIWNHSDSISNKVLRPQGFIPCVSHETCPRSIAFNPKYSMFVTADETVDFYVYDE
